Primary screen of a compound library

Chains of the proteins cited; added tags and fusions are not shown.
UniProt P9WNZ1, whole entry: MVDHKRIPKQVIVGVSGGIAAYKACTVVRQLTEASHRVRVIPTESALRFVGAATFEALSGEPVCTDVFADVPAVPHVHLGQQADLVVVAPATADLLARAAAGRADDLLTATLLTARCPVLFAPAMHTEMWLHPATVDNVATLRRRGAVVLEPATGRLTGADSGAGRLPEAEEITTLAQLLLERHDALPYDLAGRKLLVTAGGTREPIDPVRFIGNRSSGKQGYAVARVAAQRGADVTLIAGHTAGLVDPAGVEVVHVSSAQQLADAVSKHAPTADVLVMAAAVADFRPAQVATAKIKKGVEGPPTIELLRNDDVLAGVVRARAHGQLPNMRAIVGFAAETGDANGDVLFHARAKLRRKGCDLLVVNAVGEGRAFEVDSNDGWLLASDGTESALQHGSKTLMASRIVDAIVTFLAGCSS
UniProt P9WFT3, whole entry: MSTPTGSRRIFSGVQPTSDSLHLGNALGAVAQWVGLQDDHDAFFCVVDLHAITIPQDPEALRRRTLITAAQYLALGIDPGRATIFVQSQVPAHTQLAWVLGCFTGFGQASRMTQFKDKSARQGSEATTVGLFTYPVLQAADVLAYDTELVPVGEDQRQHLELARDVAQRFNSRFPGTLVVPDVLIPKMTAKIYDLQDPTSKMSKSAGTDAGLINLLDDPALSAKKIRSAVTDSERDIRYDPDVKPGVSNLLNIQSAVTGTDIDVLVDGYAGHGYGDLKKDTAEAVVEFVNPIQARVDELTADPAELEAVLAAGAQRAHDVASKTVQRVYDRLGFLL
UniProt I6X8D2, whole entry: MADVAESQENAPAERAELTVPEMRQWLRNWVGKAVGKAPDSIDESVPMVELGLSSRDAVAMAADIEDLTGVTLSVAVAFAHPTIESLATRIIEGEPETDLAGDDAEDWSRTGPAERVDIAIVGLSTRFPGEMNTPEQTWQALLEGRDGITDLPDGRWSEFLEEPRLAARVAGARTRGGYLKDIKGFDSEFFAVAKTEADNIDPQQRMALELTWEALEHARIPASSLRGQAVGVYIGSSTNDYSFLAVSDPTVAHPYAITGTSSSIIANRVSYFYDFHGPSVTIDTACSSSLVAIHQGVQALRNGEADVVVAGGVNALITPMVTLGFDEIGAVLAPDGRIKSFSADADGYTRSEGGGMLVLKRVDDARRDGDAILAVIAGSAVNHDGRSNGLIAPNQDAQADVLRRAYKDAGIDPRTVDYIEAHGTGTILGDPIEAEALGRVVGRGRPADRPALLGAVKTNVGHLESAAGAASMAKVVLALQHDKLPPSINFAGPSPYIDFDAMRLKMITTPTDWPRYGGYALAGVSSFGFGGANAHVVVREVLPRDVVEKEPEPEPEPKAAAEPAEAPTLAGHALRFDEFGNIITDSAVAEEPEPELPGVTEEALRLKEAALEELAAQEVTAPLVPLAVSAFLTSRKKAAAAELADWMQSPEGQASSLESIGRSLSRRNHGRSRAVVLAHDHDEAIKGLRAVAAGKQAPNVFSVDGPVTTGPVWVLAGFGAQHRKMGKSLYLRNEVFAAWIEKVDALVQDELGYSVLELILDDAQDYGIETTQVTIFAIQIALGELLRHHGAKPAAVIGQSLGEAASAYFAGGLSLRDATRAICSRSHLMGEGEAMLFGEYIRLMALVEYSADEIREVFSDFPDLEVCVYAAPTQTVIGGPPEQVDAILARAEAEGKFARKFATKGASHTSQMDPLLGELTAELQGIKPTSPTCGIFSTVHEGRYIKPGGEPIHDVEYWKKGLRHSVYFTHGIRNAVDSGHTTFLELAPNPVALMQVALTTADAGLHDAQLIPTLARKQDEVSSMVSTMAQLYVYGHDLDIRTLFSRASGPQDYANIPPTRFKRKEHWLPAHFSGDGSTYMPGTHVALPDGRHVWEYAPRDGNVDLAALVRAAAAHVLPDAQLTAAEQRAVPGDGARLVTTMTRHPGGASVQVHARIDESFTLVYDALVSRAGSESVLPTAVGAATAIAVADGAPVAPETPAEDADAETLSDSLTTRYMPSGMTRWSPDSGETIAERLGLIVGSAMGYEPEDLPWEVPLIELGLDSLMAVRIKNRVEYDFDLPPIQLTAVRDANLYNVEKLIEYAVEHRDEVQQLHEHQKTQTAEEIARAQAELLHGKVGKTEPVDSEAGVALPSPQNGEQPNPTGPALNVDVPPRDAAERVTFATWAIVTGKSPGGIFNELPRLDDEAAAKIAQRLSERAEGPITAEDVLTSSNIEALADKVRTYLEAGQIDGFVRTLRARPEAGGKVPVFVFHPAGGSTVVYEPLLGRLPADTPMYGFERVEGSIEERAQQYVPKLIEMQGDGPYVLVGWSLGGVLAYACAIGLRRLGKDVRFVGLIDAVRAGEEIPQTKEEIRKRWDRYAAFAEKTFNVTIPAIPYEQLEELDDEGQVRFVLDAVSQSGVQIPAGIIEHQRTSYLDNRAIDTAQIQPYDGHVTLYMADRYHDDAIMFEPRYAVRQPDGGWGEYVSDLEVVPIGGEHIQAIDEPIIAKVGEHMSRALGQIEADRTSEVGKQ

The filed quantity is “Percent Effect” (%). The controls that fix the scale are not given in the record; negative values are as filed. The compounds are a random part of those screened. A dash means the value is not listed here; it may have been measured.

CoaBC: 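Coenzyme A biosynthesis protein CoaBC, Mycobacterium tuberculosis (UniProt P9WNZ1). Enzyme assay of CoaBC with a phosphate dye (Biomol Green) read at 650 nm. Tested at 30 µM. Direction is inferred from only a few compounds that gave an IC50; most scored high, so higher reads as stronger inhibition. Most strong results did not repeat in a second test. About 67,000 compounds were tested under these conditions; 0.06% (about 40) showed 50% or more at least once.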
MtTrpRS: 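Tryptophan-tRNA ligase, Mycobacterium tuberculosis (UniProt P9WFT3). Enzyme assay of tryptophanyl-tRNA synthetase; the read-out is not stated. Compounds at 10 µM. Direction is not recorded; retested compounds ran higher, which suggests that high means inhibition. About 65,000 compounds were tested under these conditions; 0.098% (about 64) showed 50% or more at least once.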
Pks13 thioesterase: 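Enzyme assay of the thioesterase domain of polyketide synthase 13; the read-out is not stated. Target: Polyketide synthase Pks13, Mycobacterium tuberculosis (UniProt I6X8D2). Tested at 30 µM. The record gives no direction; the compounds picked for IC50 retests had high values, so higher reads as stronger inhibition. Of about 67,000 compounds tested this way, about 300 (0.46%) reached 50% or more in at least one test.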

| compound | CoaBC | MtTrpRS | Pks13 thioesterase |
|---|---|---|---|
| `CCN(CC1CCOC1)C(=O)c1ccccc1N1CCOCC1` (centres unmarked) | -1.503 | 0.4873 | -13.31 |
| `CC(=O)Nc1nc(CN(C)CC2CCCN2c2cccnn2)cs1` (centres unmarked) | -7.937 | 3.939 | -22.47 |
| `O=C(NCC1(CO)CC1)c1ccccc1F` | 1.623 | -0.1564 | -2.495 |
| `CCn1cc2c(n1)CN(S(=O)(=O)c1cn(C)cn1)CC2COC` (centres unmarked) | 2.917 | 0.07052 | -28.45 |
| `Cc1nccc(NCc2cc3n(n2)CCCN(C(=O)C2CCC2)C3)n1` | 4.685 | -0.2945 | -4.395 |
| `CC(C)SCC(=O)N1Cc2cnc(-c3ccccc3)nc2C1` | 6.925 | -6.244 | -16.41 |
| `O=C(NC1CCN(c2ncccn2)CC1)c1cc2c(cc1O)CCCC2` | 7.018 | 1.65 | 38.36 |
| `COc1ccc(OC)c(CN(C)c2nc3c(cnn3C)c(=O)[nH]2)c1` | 1.375 | 4.461 | -6.862 |
| `COc1cccc(C(=O)N2CCOCC2CN(C)C)c1OC` (centres unmarked) | 1.873 | 1.876 | -8.615 |
| `Cc1ccoc1C(=O)N1CC[C@H]2C[C@H](c3nnc(C4CC4)o3)O[C@@H]2C1` | 2.222 | - | -9.919 |
| `CC1COCCN1Cc1nc(-c2cccc(Br)c2)no1` (centres unmarked) | 2.254 | -2.739 | 21.22 |
| `Cc1nn(C)c(N(C)C)c1CNC1CCc2c(Cl)cccc21` (centres unmarked) | 2.408 | -3.076 | 2.237 |
| `CC(C)c1nc(O)c2nnn(C[C@@H]3CCCN(Cc4cccs4)C3)c2n1` | 9.026 | -1.97 | 5.592 |
| `COCCC(=O)N1CC[C@@H]2O[C@@H](C)C[C@H]2C1` | 7.513 | 1.586 | -32.26 |
| `CC1CN(CC(=O)NC(=O)NCc2cccs2)CCN1CC(F)(F)F` (centres unmarked) | -2.503 | 0.5089 | -3.624 |
| `CS(=O)(=O)Nc1ccc(CNC(=O)CN2CCc3ccccc32)cc1` | 2.244 | 7.672 | 4.558 |
| `Cn1nc(C(=O)NCc2ccc(Cl)cc2)c2c1CCS(=O)(=O)C2` | -2.54 | 2.85 | -10.57 |
| `O=C(NCCc1nnc2n1CCC2)NCC1(c2ccccc2)CC1` | 1.449 | 17.64 | -10.49 |
| `Cc1cnc2n1CCN(C)C21CCN(C(=O)CC(C)C)CC1` | -0.3807 | -2.833 | -8.209 |
| `COc1cccc2c(=O)n(Cc3cccnc3)cnc12` | 3.181 | 1.188 | -1.422 |
| `Cc1ccc(S(=O)(=O)N2CC[C@@H]3C[C@H](NC(=O)c4ccncc4)[C@@H]32)cc1` | -44.26 | -7.552 | -2.097 |
| `O=C(NC[C@]12COC[C@H]1CN(Cc1nccs1)C2)c1ccccc1` | 2.557 | 5.427 | -17.16 |
| `COc1cccc(CNCC2CCN(CC(C)O)CC2)c1OC` (centres unmarked) | 5.627 | 0.832 | -24.87 |
| `Clc1cncc(NCc2cccc(COC3CCOCC3)c2)n1` | 6.638 | -0.5236 | -15.08 |
| `COCCN(Cc1noc(-c2ccc(OC)cc2)n1)C1CC1` | 7.253 | -0.854 | 20.61 |
| `Cc1nccn1CCC(=O)N1CCC2(CCC(=O)N(CC3CC3)C2)CC1` | 0 | -1.419 | -6.345 |
| `CCn1c(CN(C)C)nnc1C1CCN(Cc2cnc(C)nc2)CC1` | 1.327 | 1.957 | -7.01 |
| `Cc1ncc2c(n1)CN(CC(=O)NCCOc1ccccc1)CC2` | 4.302 | -6.541 | 2.981 |
| `CN(C(=O)Cc1ccc(F)cc1)C1CCN(c2ccccn2)CC1` | 4.178 | -8.88 | -13.91 |
| `CCCNC(=O)C1CCCN(c2ccc3nncn3n2)C1` (centres unmarked) | 4.693 | -0.000007 | 31.48 |
| `CCc1cc(NCCc2ccc(O)cc2)n2nccc2n1` | 7.036 | 4.918 | -15.65 |
| `CNC(=O)c1cccc(CCNS(C)(=O)=O)c1` | 7.54 | -5.832 | -14.6 |
| `Cc1nc(O)cc(CN2CC=C(c3cnn(C(C)(C)C)c3)CC2)n1` | 9.535 | 0 | -10.24 |
| `CC(O)C(=O)N1CCC(c2nccn2Cc2cscn2)CC1` (centres unmarked) | 5.428 | 0.6522 | -7.671 |
| `O=C(NCc1ccco1)[C@@H]1CCO[C@@H]2CCN(CC3CC3)C[C@@H]21` | -29.82 | -0.5348 | -3.583 |
| `COc1ccc(C(C)NCc2cscn2)cc1Cn1cccn1` (centres unmarked) | 1.434 | -3.43 | -16.51 |
| `O=C(NC1CCS(=O)(=O)C1)N1CCN(c2cnccn2)CC1` (centres unmarked) | 8.432 | 0.6803 | -3.735 |
| `CSCC(=O)N1CCc2nc(C)nc(NCc3ccccc3)c2CC1` | 3.325 | -3.465 | -8.028 |
| `CCN(CC)C(=O)CCCNC(=O)c1csc(NC2CC2)n1` | -18.64 | 2.434 | 1.151 |
| `c1ccc(CN2CCO[C@H]3[C@H](OCCN4CCCC4)CC[C@@H]32)nc1` | 2.665 | -1.574 | -5.532 |
| `COc1ccc(NC(=O)C(C)n2cncn2)cn1` (centres unmarked) | 12.94 | -3.078 | -0.1532 |

The last 4 entries again:

CSCC(=O)N1CCc2nc(C)nc(NCc3ccccc3)c2CC1 read CoaBC: 3.325%; MtTrpRS: -3.465%; Pks13 thioesterase: -8.028%.
CCN(CC)C(=O)CCCNC(=O)c1csc(NC2CC2)n1 read CoaBC: -18.64%; MtTrpRS: 2.434%; Pks13 thioesterase: 1.151%.
c1ccc(CN2CCO[C@H]3[C@H](OCCN4CCCC4)CC[C@@H]32)nc1 read CoaBC: 2.665%; MtTrpRS: -1.574%; Pks13 thioesterase: -5.532%.
COc1ccc(NC(=O)C(C)n2cncn2)cn1 (centres unmarked) read CoaBC: 12.94%; MtTrpRS: -3.078%; Pks13 thioesterase: -0.1532%.

Source: ChEMBL document CHEMBL3988442, “University of Dundee, Small-Polar-MMV Screening Library” (2021).